# The campaign covered roughly 390,000 compounds. About 610 (0.16%) were called active. Inconclusive results, whose numbers are uncertain, are shown with a selection of clear calls. Calls follow the shape of the dose curve; as a rule, active = well fitted inhibition curve with a large enough effect; inconclusive = small, poorly fitted or top-dose-only effect, or effect the other way, or another doubt; inactive = no such curve, though single readings can be large or run the other way. Potencies beside an inconclusive call are fits to weak or partial responses and may not hold up.
# Assay: Nrf2 qHTS screen for inhibitors: counterscreen for cytotoxicity
# Conditions: A549 ARE-Fluc cells, CellTiter-Fluor viability, 18-24 h; activity change, negative = cytotoxicity: at 46 µM (top of the series)
# How it was run: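 Cytotoxicity counterscreen: CellTiter-Fluor fluorescence was measured in A549 ARE_Fluc cells after 18-24 h of compound exposure in a concentration series. The subsequent BugLite luminescent read reports ARE-luciferase activity.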
# % is scaled to controls: 0 for no effect and ±100 for the full control effect; potency is read from the fitted curve at half-maximal effect.
SMILES,"activity change, negative = cytotoxicity",Potency
Cc1c(Cl)cccc1NC(=O)c1oc2ccc(S(=O)(=O)N3CCC4(CC3)OCCO4)cc2c1C,inactive: -10.2%,–
Cc1cc(/C=C(\C#N)C(N)=O)c(C)n1-c1ccc(N2CCOCC2)c([N+](=O)[O-])c1,–,"inconclusive: 25.9 µM [falling, partial curve, poor fit]"
Cc1cccc(OCCCCc2c(C)n[nH]c2C)c1C,–,"inconclusive: 20.6 µM [falling, partial curve, poor fit]"
Brc1ccc(-c2noc(CCc3ccccc3)n2)cc1,–,"inconclusive: 7.31 µM [activator, partial curve, poor fit]"
C=CCn1c(SCC(=O)OCC)nc(C(F)(F)F)cc1=O,–,"inconclusive: 25.9 µM [activator, partial curve, poor fit]"
Cc1cccn2c(=O)c3cc(C(=O)NCCN4CCOCC4)c(=N)n(CCCN4CCOCC4)c3nc12,–,"inconclusive: 16.4 µM [falling, partial curve, poor fit]"
O=C1/C(=C\c2ccc(O)c(O)c2)Oc2c1ccc(O[C@@H]1O[C@H](CO)[C@@H](O)[C@H](O)[C@H]1O)c2O,–,"inconclusive: 13 µM [falling, partial curve, poor fit]"
Cc1cc2ccccn2c1C(=O)c1ccc([N+](=O)[O-])o1,–,"inconclusive: 18.4 µM [falling, single point]"
CC(C)c1ccc(C(=O)CC2(O)C(=O)N(CCc3ccccc3)c3ccc(Cl)cc32)cc1 (centres undefined),–,"inconclusive: 29.1 µM [falling, single point]"
COc1ccccc1OCC(=O)NC1CCCc2ccccc21 (centres undefined),inactive: 0.842%,–
CCCCN(CCCC)C(=S)N/N=C/c1c(C)[nH]n(-c2ccccc2)c1=O,–,"inconclusive: 18.4 µM [falling, single point]"
O=S(=O)(NC1CCCC1)c1ccc(S(=O)(=O)N(Cc2cccs2)CC2CCCO2)cc1 (centres undefined),inactive: -12.9%,–
COc1ccc(C2=Nn3c(nnc3-c3ccncc3)SC2)cc1OC,–,"inconclusive: 0.92 µM [activator, full curve, poor fit]"
O=C1C2C3c4ccccc4C(c4ccccc43)C2c2nc3ccccc3n21 (centres undefined),inactive: -7.95%,–
Cc1cc(C(=O)N/N=C/c2ccc(N(C)C)cc2)c2ccccc2n1,–,"inconclusive: 8.2 µM [falling, partial curve]"
c1ccc(CCNc2ncnc3sccc23)nc1,–,"inconclusive: 18.4 µM [falling, partial curve, poor fit]"
Cc1cc(C)c(CN2CCN(CCCn3cnc(C(=O)Nc4ccc(C)c(C)c4)n3)CC2)c(C)c1,–,"inconclusive: 29.1 µM [falling, partial curve, poor fit]"
CC(C)CNC(=O)c1cc([N+](=O)[O-])ccc1N1CCCCC1,–,"inconclusive: 20.6 µM [falling, single point]"
COc1ccccc1NS(=O)(=O)c1cc([N+](=O)[O-])ccc1N/N=C/c1sc(N2CCOCC2)nc1-c1ccccc1,–,"inconclusive: 18.4 µM [falling, single point]"
CCc1ccc(NC(=O)CSC2=Nc3ccccc3C3=NC(CC(=O)NCc4cccs4)C(=O)N23)cc1 (centres undefined),inactive: -5.7%,–
COc1ccc(CCNC(=O)c2ccc(CN3CCC(Cc4ccccc4)CC3)cc2)cc1,inactive: 15.3%,–
Cc1ccc(C)c(NS(=O)(=O)c2cc(C(=O)NCCC3=CCCCC3)ccc2C)c1,–,"inconclusive: 1.84 µM [falling, partial curve]"

SMILES,"activity change, negative = cytotoxicity",Potency
COc1cc(NC(=O)Nc2c[nH]c(=O)[nH]c2=O)cc(OC)c1OC,inactive: 7.55%,–
O=C(O)C(O)c1ccccc1 (centres undefined),–,"inconclusive: 29.1 µM [falling, partial curve, poor fit]"
CN(C)/C=N/c1sc2c(c1C#N)CC(C)(C)NC2(C)C,–,"inconclusive: 3.66 µM [activator, partial curve, poor fit]"
Cc1cc(S(=O)(=O)NCCc2csc(-c3cccc(F)c3)n2)ccc1F,inactive: -0.585%,–
CC1CCC(NC(=O)CSc2nnnn2C)CC1 (centres undefined),–,"inconclusive: 5.8 µM [activator, single point]"
COC(=O)CCCCCN1C(=O)NC(c2ccccc2)C(C(=O)OCc2ccccc2)=C1C (centres undefined),–,"inconclusive: 25.9 µM [falling, partial curve, poor fit]"
COC(=O)c1cc(Cl)c(NC(=O)/C=C/c2ccc(Cl)cc2)cc1OC,inactive: 10.5%,–
O=C1N(c2ccccc2)C[C@@H]2C[C@@H](c3cc4ccccc4o3)N3CCC[C@@]123,–,"inconclusive: 0.58 µM [falling, full curve]"
CCCC(=O)N1CCN(c2ccc(NC(=O)c3ccc([N+](=O)[O-])o3)cc2Cl)CC1,–,"inconclusive: 20.6 µM [falling, single point]"
CCc1cccc(CC)c1NC(=O)/C(C#N)=C/c1ccccc1C(F)(F)F,–,"inconclusive: 29.1 µM [falling, single point]"
Cc1nc(N2CCCCC2C)c2c(C)c(C(=O)Nc3ccccc3C(F)(F)F)sc2n1 (centres undefined),–,"inconclusive: 0.92 µM [activator, full curve, poor fit]"
Cc1ccc(C)c(C(C)NC(=O)c2ccc(Br)o2)c1 (centres undefined),–,"inconclusive: 10.3 µM [activator, partial curve, poor fit]"
c1ccc(-c2cc3cc4c(cc3cn2)OCO4)cc1,–,"inconclusive: 29.1 µM [activator, partial curve, poor fit]"
Cc1ccc(NC(=O)C2CCCN(S(=O)(=O)c3ccc4c(c3)CCCC(=O)N4)C2)cc1N(C)C (centres undefined),inactive: 0.521%,–
Cc1ccc(C)c(NC(=O)Cn2c(=O)n(CCCS(=O)(=O)C3CCCCC3)c(=O)c3ccccc32)c1,inactive: 8.49%,–
O=C(N/N=C\C=C\c1ccco1)c1cc(-c2ccc3ccccc3c2)n[nH]1,–,"inconclusive: 8.2 µM [falling, partial curve]"
S=c1[nH]c2cc3ccccc3cc2[nH]1,–,"inconclusive: 20.6 µM [activator, single point]"
COc1ccc2[nH]c(=O)c(CN(Cc3nnnn3Cc3ccccc3)CC3CCCO3)cc2c1 (centres undefined),inactive: -2.25%,–
CC(C)OC(=O)c1c2c(n3ccccc13)C(=O)c1ccccc1C2=O,–,"inconclusive: 25.9 µM [falling, partial curve, poor fit]"
COc1ccc(NC(=O)c2ccco2)cc1NC(=O)c1cccc(C)c1OC,–,"inconclusive: 29.1 µM [falling, single point]"
CCOC(=O)c1sc2nc(CC(=O)OC)nc(NCc3ccc(F)cc3)c2c1C,–,"inconclusive: 25.9 µM [falling, single point]"
O=S(=O)(Nc1ccc2c(c1)nc1n2CCN(Cc2ccccc2)C1)c1ccc(Cl)cc1,–,"inconclusive: 29.1 µM [falling, single point]"

SMILES,"activity change, negative = cytotoxicity",Potency
O=C(c1ccc(Br)s1)N1CCN(c2ncccn2)CC1,–,"inconclusive: 7.31 µM [activator, partial curve, poor fit]"
CC(C)OCCCNc1ccc(N2C(=O)CCCC2=O)cc1[N+](=O)[O-],–,"inconclusive: 20.6 µM [falling, single point]"
COc1ccc(-c2nc(NC(=O)Cn3ccc(C(F)(F)F)n3)sc2C)cc1,–,"inconclusive: 20.6 µM [falling, partial curve, poor fit]"
C=CCSc1nsc(NC(=O)Nc2ccc(F)cc2)n1,–,"inconclusive: 29.1 µM [falling, single point]"
CCc1ccccc1NC(=O)CCS(=O)(=O)c1ccc2c(c1)CCCN2C(C)=O,inactive: -1.04%,–
O=C(O)c1ccc(COc2ccc3ccccc3c2/C=C2/NC(=O)N(Cc3ccc(F)cc3)C2=O)cc1,inactive: -27.1%,–
CC(NC(=O)C1CCCC1)C1CC2CCC1C2 (centres undefined),inactive: 0.613%,–
COc1cc(C(=O)NCc2ccc(C(=O)NCC(OC)OC)cc2)cc(OC)c1OC,inactive: 1.17%,–
COc1ccc(NC(=O)c2ccc(COc3ccccc3Br)o2)c(OC)c1,–,"inconclusive: 4.61 µM [activator, full curve, poor fit]"
CN(Cc1ccc(OC(F)F)cc1)C(=O)C1CCN(S(=O)(=O)c2ccc3c(c2)OCCO3)CC1,inactive: -1.77%,–
Cc1nnc(SCC(=O)Nc2ccc(OC(F)F)c(Cl)c2)n(N)c1=O,inactive: -3.73%,–
O=[N+]([O-])c1ccc2nc(NS(=O)(=O)c3ccc(F)cc3)sc2c1,–,"inconclusive: 23.1 µM [falling, single point]"
CCOC(=O)CCc1c(C)c2cc3c(c(C)c2oc1=O)OCN(CCc1ccccc1OC)C3,–,"inconclusive: 20.6 µM [activator, partial curve, poor fit]"
Cc1ccc(C(=O)NC2CCN(C(=O)NCc3ccccc3)CC2)cc1,–,"inconclusive: 29.1 µM [falling, single point]"
CN(CC(=O)Nc1ccc(Cl)c(C(F)(F)F)c1)C(=O)Cc1c[nH]c2ccccc12,–,"inconclusive: 32.6 µM [falling, partial curve, poor fit]"
Cc1ccc(C(=O)NNC(=O)CCCN2C(=O)/C(=C/c3ccccc3Cl)SC2=S)cc1,–,"inconclusive: 29.1 µM [falling, partial curve, poor fit]"
CC(C)(C)c1cc(C(c2cccnc2)N2CCN(CCO)CC2)cc(C(C)(C)C)c1O (centres undefined),–,"inconclusive: 32.6 µM [falling, single point]"
CCOC(=O)c1c(C)oc2nc(C)nc(NCCc3ccc(OCC)cc3)c12,inactive: -3.26%,–
CCOC(=O)C1=C(C)Nc2sc(C(=O)c3ccc(F)cc3)c(N)c2C1c1ccc(C(=O)OC)cc1 (centres undefined),–,"inconclusive: 10.3 µM [falling, partial curve, poor fit]"
Cn1c(N)c(C(=O)COC(=O)C2(c3ccc(Cl)cc3)CCCC2)c(=O)n(C)c1=O,–,"inconclusive: 23.1 µM [falling, partial curve, poor fit]"

# Given with tabs: entries from further up
SMILES	activity change, negative = cytotoxicity	Potency
Cc1ccc(C(=O)NC2CCN(C(=O)NCc3ccccc3)CC2)cc1	–	inconclusive: 29.1 µM [falling, single point]
CN(CC(=O)Nc1ccc(Cl)c(C(F)(F)F)c1)C(=O)Cc1c[nH]c2ccccc12	–	inconclusive: 32.6 µM [falling, partial curve, poor fit]
